Results are given in words; binding and its absence hold for the method and conditions named. Binding seen in cells or lysates may run through a third protein. Here binding means that the protein was enriched with, or labelled near, the bait; the list need not be complete.
Key:
Experiment in all cases: proximity labelling; MitoID: GTPase-BirA*-HA-MAO chimera on mitochondria of transiently transfected HEK293T cells, 50 uM biotin 18 h, streptavidin beads, mass spectrometry, biological triplicates; hits by WD scores and volcano plots against the GDP-locked forms
[1] = biological target: RhoA(Q63L)-BirA*-HA-MAO (human) (UniProt P61586)
[2] = biological target: Rab11A(Q69L)-BirA*-HA-MAO (human)
[3] = biological target: Rab11A(S25N)-BirA*-HA-MAO (human)
[4] = biological target: Rab5A(Q79L)-BirA*-HA-MAO (human) (UniProt P20339)
[5] = biological target: Rab6A(Q72L)-BirA*-HA-MAO (human) (UniProt P20340)

Amino acid sequences for entries named in this document (tags omitted). A change or cut given only in a name is not applied to a line headed by its entry. Chains listed by the source or under a name are the forms on record and can include a tag or linker.
UniProt P61586: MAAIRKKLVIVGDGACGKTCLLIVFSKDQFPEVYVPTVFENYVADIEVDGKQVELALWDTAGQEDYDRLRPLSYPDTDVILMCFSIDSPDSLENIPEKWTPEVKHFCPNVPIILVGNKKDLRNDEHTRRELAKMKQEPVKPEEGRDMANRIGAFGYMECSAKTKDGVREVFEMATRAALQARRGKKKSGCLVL
Rab5A(Q79L)-BirA*-HA-MAO (P20339, form named): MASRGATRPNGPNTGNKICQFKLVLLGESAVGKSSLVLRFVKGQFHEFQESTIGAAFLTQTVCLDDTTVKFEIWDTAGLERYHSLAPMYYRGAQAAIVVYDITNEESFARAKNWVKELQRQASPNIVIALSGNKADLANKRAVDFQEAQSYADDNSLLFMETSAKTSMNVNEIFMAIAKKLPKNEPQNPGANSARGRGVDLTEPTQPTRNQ
UniProt P20340: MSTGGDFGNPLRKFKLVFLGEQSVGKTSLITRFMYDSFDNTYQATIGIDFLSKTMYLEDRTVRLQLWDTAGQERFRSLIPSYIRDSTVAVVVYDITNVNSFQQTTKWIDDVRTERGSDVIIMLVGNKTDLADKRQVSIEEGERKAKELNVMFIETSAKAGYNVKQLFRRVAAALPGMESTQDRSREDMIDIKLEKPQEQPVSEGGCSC

binding [1] | binding [2] | binding [3] | binding [4] | binding [5] | Binder
binds |  |  |  |  | RTKN2 (protein, UniProt Q8IZC4 1-609) MEGPSLRGPALRLAGLPTQQDCNIQEKIDLEIRMREGIWKLLSLSTQKDQVLHAVKNLMVCNARLMAYTSELQKLEEQIANQTGRCDVKFESKERTACKGKIAISDIRIPLMWKDSDHFSNKERSRRYAIFCLFKMGANVFDTDVVNVDKTITDICFENVTIFNEAGPDFQIKVEVYSCCTEESSITNTPKKLAKKLKTSISKATGKKISSVLQEEDDEMCLLLSSAVFGVKYNLLAHTTLTLESAEDSFKTHNLSINGNEESSFWLPLYGNMCCRLVAQPACMAEDAFAGFLNQQQMVEGLISWRRLYCVLRGGKLYCFYSPEEIEAKVEPALVVPINKETRIRAMDKDAKKRIHNFSVINPVPGQAITQIFAVDNREDLQKWMEAFWQHFFDLSQWKHCCEELMKIEIMSPRKPPLFLTKEATSVYHDMSIDSPMKLESLTDIIQKKIEETNGQFLIGQHEESLPPPWATLFDGNHQMVIQKKVLYPASEPLHDEKGKKRQAPLPPSDKLPFSLKSQSNTDQLVKDNWGKTSVSQTSSLDTKLSTLMHHLQKPMAAPRKLLPARRNRLSDGEHTDTKTNFEAKPVPAPRQKSIKDILDPRSWLQAQV
binds |  |  |  |  | INPPL1/SHIP (protein, UniProt O15357 1-1258) MASACGAPGPGGALGSQAPSWYHRDLSRAAAEELLARAGRDGSFLVRDSESVAGAFALCVLYQKHVHTYRILPDGEDFLAVQTSQGVPVRRFQTLGELIGLYAQPNQGLVCALLLPVEGEREPDPPDDRDASDGEDEKPPLPPRSGSTSISAPTGPSSPLPAPETPTAPAAESAPNGLSTVSHDYLKGSYGLDLEAVRGGASHLPHLTRTLATSCRRLHSEVDKVLSGLEILSKVFDQQSSPMVTRLLQQQNLPQTGEQELESLVLKLSVLKDFLSGIQKKALKALQDMSSTAPPAPQPSTRKAKTIPVQAFEVKLDVTLGDLTKIGKSQKFTLSVDVEGGRLVLLRRQRDSQEDWTTFTHDRIRQLIKSQRVQNKLGVVFEKEKDRTQRKDFIFVSARKREAFCQLLQLMKNKHSKQDEPDMISVFIGTWNMGSVPPPKNVTSWFTSKGLGKTLDEVTVTIPHDIYVFGTQENSVGDREWLDLLRGGLKELTDLDYRPIAMQSLWNIKVAVLVKPEHENRISHVSTSSVKTGIANTLGNKGAVGVSFMFNGTSFGFVNCHLTSGNEKTARRNQNYLDILRLLSLGDRQLNAFDISLRFTHLFWFGDLNYRLDMDIQEILNYISRKEFEPLLRVDQLNLEREKHKVFLRFSEEEISFPPTYRYERGSRDTYAWHKQKPTGVRTNVPSWCDRILWKSYPETHIICNSYGCTDDIVTSDHSPVFGTFEVGVTSQFISKKGLSKTSDQAYIEFESIEAIVKTASRTKFFIEFYSTCLEEYKKSFENDAQSSDNINFLKVQWSSRQLPTLKPILADIEYLQDQHLLLTVKSMDGYESYGECVVALKSMIGSTAQQFLTFLSHRGEETGNIRGSMKVRVPTERLGTRERLYEWISIDKDEAGAKSKAPSVSRGSQEPRSGSRKPAFTEASCPLSRLFEEPEKPPPTGRPPAPPRAAPREEPLTPRLKPEGAPEPEGVAAPPPKNSFNNPAYYVLEGVPHQLLPPEPPSPARAPVPSATKNKVAITVPAPQLGHHRHPRVGEGSSSDEESGGTLPPPDFPPPPLPDSAIFLPPSLDPLPGPVVRGRGGAEARGPPPPKAHPRPPLPPGPSPASTFLGEVASGDDRSCSVLQMAKTLSEVDYAPAGPARSALLPGPLELQPPRGLPSDYGRPLSFPPPRIRESIQEDLAEEAPCLQGGRASGLGEAGMSAWLRAIGLERYEEGLVHNGWDDLEFLSDITEEDLEEAGVQDPAHKRLLLDTLQLSK
binds |  |  |  |  | ABR (protein, UniProt Q12979 1-859) MEPLSHRGLPRLSWIDTLYSNFSYGTDEYDGEGNEEQKGPPEGSETMPYIDESPTMSPQLSARSQGGGDGVSPTPPEGLAPGVEAGKGLEMRKLVLSGFLASEEIYINQLEALLLPMKPLKATATTSQPVLTIQQIETIFYKIQDIYEIHKEFYDNLCPKVQQWDSQVTMGHLFQKLASQLGVYKAFVDNYKVALETAEKCSQSNNQFQKISEELKVKGPKDSKDSHTSVTMEALLYKPIDRVTRSTLVLHDLLKHTPVDHPDYPLLQDALRISQNFLSSINEDIDPRRTAVTTPKGETRQLVKDGFLVEVSESSRKLRHVFLFTDVLLCAKLKKTSAGKHQQYDCKWYIPLADLVFPSPEESEASPQVHPFPDHELEDMKMKISALKSEIQKEKANKGQSRAIERLKKKMFENEFLLLLNSPTIPFRIHNRNGKSYLFLLSSDYERSEWREAIQKLQKKDLQAFVLSSVELQVLTGSCFKLRTVHNIPVTSNKDDDESPGLYGFLHVIVHSAKGFKQSANLYCTLEVDSFGYFVSKAKTRVFRDTAEPKWDEEFEIELEGSQSLRILCYEKCYDKTKVNKDNNEIVDKIMGKGQIQLDPQTVETKNWHTDVIEMNGIKVEFSMKFTSRDMSLKRTPSKKQTGVFGVKISVVTKRERSKVPYIVRQCVEEVEKRGIEEVGIYRISGVATDIQALKAVFDANNKDILLMLSDMDINAIAGTLKLYFRELPEPLLTDRLYPAFMEGIALSDPAAKENCMMHLLRSLPDPNLITFLFLLEHLKRVAEKEPINKMSLHNLATVFGPTLLRPSEVESKAHLTSAADIWSHDVMAQVQVLLYYLQHPPISFAELKRNTLYFSTDV
 | binds | binds | binds |  | OSBPL11 (protein, UniProt Q9BXB4 1-747) MQGGEPVSTMKVSESEGKLEGQATAVTPNKNSSCGGGISSSSSSRGGSAKGWQYSDHMENVYGYLMKYTNLVTGWQYRFFVLNNEAGLLEYFVNEQSRNQKPRGTLQLAGAVISPSDEDSHTFTVNAASGEQYKLRATDAKERQHWVSRLQICTQHHTEAIGKNNPPLKSRSFSLASSSNSPISQRRPSQNAISFFNVGHSKLQSLSKRTNLPPDHLVEVREMMSHAEGQQRDLIRRIECLPTSGHLSSLDQDLLMLKATSMATMNCLNDCFHILQLQHASHQKGSLPSGTTIEWLEPKISLSNHYKNGADQPFATDQSKPVAVPEEQPVAESGLLAREPEEINADDEIEDTCDHKEDDLGAVEEQRSVILHLLSQLKLGMDLTRVVLPTFILEKRSLLEMYADFMSHPDLFIAITNGATAEDRMIRFVEYYLTSFHEGRKGAIAKKPYNPIIGETFHCSWKMPKSEVASSVFSSSSTQGVTNHAPLSGESLTQVGSDCYTVRFVAEQVSHHPPVSGFYAECTERKMCVNAHVWTKSKFLGMSIGVTMVGEGILSLLEHGEEYTFSLPCAYARSILTVPWVELGGKVSVNCAKTGYSASITFHTKPFYGGKLHRVTAEVKHNITNTVVCRVQGEWNSVLEFTYSNGETKYVDLTKLAVTKKRVRPLEKQDPFESRRLWKNVTDSLRESEIDKATEHKHTLEERQRTEERHRTETGTPWKTKYFIKEGDGWVYHKPLWKIIPTTQPAE
 | binds | binds |  | binds | INPP5F (protein, UniProt Q9Y2H2 1-1132) MELFQAKDHYILQQGERALWCSRRDGGLQLRPATDLLLAWNPICLGLVEGVIGKIQLHSDLPWWLILIRQKALVGKLPGDHEVCKVTKIAVLSLSEMEPQDLELELCKKHHFGINKPEKIIPSPDDSKFLLKTFTHIKSNVSAPNKKKVKESKEKEKLERRLLEELLKMFMDSESFYYSLTYDLTNSVQRQSTGERDGRPLWQKVDDRFFWNKYMIQDLTEIGTPDVDFWIIPMIQGFVQIEELVVNYTESSDDEKSSPETPPQESTCVDDIHPRFLVALISRRSRHRAGMRYKRRGVDKNGNVANYVETEQLIHVHNHTLSFVQTRGSVPVFWSQVGYRYNPRPRLDRSEKETVAYFCAHFEEQLNIYKKQVIINLVDQAGREKIIGDAYLKQVLLFNNSHLTYVSFDFHEHCRGMKFENVQTLTDAIYDIILDMKWCWVDEAGVICKQEGIFRVNCMDCLDRTNVVQAAIARVVMEQQLKKLGVMPPEQPLPVKCNRIYQIMWANNGDSISRQYAGTAALKGDFTRTGERKLAGVMKDGVNSANRYYLNRFKDAYRQAVIDLMQGIPVTEDLYSIFTKEKEHEALHKENQRSHQELISQLLQSYMKLLLPDDEKFHGGWALIDCDPSLIDATHRDVDVLLLLSNSAYYVAYYDDEVDKVNQYQRLSLENLEKIEIGPEPTLFGKPKFSCMRLHYRYKEASGYFHTLRAVMRNPEEDGKDTLQCIAEMLQITKQAMGSDLPIIEKKLERKSSKPHEDIIGIRSQNQGSLAQGKNFLMSKFSSLNQKVKQTKSNVNIGNLRKLGNFTKPEMKVNFLKPNLKVNLWKSDSSLETMENTGVMDKVQAESDGDMSSDNDSYHSDEFLTNSKSDEDRQLANSLESVGPIDYVLPSCGIIASAPRLGSRSQSLSSTDSSVHAPSEITVAHGSGLGKGQESPLKKSPSAGDVHILTGFAKPMDIYCHRFVQDAQNKVTHLSETRSVSQQASQERNQMTNQVSNETQSESTEQTPSRPSQLDVSLSATGPQFLSVEPAHSVASQKTPTSASSMLELETGLHVTPSPSESSSSRAVSPFAKIRSSMVQVASITQAGLTHGINFAVSKVQKSPPEPEIINQVQQNELKKMFIQCQTRIIQI

— publication PMC6639074
